From PMC8905163
These are yes or no findings as the source states them, for the method shown. In cells and extracts the contact can be indirect. Some binding calls cover weakened binding; strength is not graded here. Tags and fused reporters may be left off the sequences shown.

Chains of the proteins cited; added tags and fusions are not shown. Lines headed by an entry give the natural chain unless they say otherwise; changes in a name come on top.
UniProt P30052: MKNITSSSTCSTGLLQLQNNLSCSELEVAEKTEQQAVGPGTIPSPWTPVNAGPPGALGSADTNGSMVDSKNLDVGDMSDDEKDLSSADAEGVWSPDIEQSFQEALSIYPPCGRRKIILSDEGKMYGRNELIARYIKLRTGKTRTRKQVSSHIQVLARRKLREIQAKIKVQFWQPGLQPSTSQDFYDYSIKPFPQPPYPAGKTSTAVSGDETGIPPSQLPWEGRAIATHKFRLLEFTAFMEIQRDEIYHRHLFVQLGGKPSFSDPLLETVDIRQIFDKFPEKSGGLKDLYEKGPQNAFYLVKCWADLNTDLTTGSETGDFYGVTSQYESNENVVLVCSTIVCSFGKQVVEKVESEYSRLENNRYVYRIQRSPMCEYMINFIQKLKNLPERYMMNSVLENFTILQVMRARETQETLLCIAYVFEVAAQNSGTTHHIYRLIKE

Experiments:
GST-Sna (Drosophila) = target: T1, GST-Sna (Drosophila) (UniProt P08044); test: pull-down; GST pull-down (Pierce GST Protein Interaction Pull-Down Kit) with bacterial cell lysates of E. coli expressing GST-Sna and Sd-His; western blot with anti-His and anti-GST
T1 sequence: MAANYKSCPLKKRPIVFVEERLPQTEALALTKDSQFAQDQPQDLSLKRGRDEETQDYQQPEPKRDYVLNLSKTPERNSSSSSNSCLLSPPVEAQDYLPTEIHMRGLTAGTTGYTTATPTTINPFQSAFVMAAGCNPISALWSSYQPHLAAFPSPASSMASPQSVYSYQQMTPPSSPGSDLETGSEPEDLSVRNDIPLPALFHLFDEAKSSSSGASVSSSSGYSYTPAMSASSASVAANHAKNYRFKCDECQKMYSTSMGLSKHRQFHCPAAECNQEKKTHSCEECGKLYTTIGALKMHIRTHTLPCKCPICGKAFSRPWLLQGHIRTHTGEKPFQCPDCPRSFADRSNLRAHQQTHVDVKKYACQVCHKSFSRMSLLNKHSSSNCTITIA

[1] = target: T2, Flag-Yki (Yorkie), expressed in S2R+ cells (Drosophila) (UniProt Q45VV3); test: co-IP; S2R+ cells co-transfected with pUAST plasmids and Actin-GAL4; lysed in RIPA buffer with PMSF 48 h after transfection; standard co-immunoprecipitation; which protein was precipitated not given
T2 sequence: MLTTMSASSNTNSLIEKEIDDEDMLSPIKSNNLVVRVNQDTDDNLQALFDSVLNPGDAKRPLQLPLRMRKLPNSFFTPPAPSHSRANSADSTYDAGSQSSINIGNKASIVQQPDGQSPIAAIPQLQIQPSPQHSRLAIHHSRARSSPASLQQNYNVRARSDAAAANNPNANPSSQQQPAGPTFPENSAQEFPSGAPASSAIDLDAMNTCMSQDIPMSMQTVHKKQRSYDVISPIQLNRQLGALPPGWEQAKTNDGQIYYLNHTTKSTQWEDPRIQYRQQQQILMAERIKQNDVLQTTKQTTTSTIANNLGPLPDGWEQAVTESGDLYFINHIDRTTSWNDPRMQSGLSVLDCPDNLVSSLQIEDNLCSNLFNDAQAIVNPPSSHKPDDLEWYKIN

[2] = target: HA-Sd (Scalloped), expressed in S2R+ cells (Drosophila) (UniProt P30052); test: as above
[3] = target: HA-Sd (Scalloped), expressed in larval wing discs (Drosophila) (UniProt P30052); test: co-IP; in vivo: third-instar larval wing discs over-expressing UAS-Myc-Sna and UAS-HA-Sd driven by Sd-GAL4; lysed in RIPA buffer with PMSF; standard co-immunoprecipitation

Sd-His (from UniProt P30052 1-440)
binding (GST-Sna (Drosophila)): binds

B1: Myc-Sna (Snail), expressed in S2R+ cells (protein, UniProt P08044 1-390)
chain: MAANYKSCPLKKRPIVFVEERLPQTEALALTKDSQFAQDQPQDLSLKRGRDEETQDYQQPEPKRDYVLNLSKTPERNSSSSSNSCLLSPPVEAQDYLPTEIHMRGLTAGTTGYTTATPTTINPFQSAFVMAAGCNPISALWSSYQPHLAAFPSPASSMASPQSVYSYQQMTPPSSPGSDLETGSEPEDLSVRNDIPLPALFHLFDEAKSSSSGASVSSSSGYSYTPAMSASSASVAANHAKNYRFKCDECQKMYSTSMGLSKHRQFHCPAAECNQEKKTHSCEECGKLYTTIGALKMHIRTHTLPCKCPICGKAFSRPWLLQGHIRTHTGEKPFQCPDCPRSFADRSNLRAHQQTHVDVKKYACQVCHKSFSRMSLLNKHSSSNCTITIA
binding [1]: no binding | binding [2]: binds

B2: Myc-Sna (Snail), expressed in larval wing discs (protein, UniProt P08044 1-390)
chain: MAANYKSCPLKKRPIVFVEERLPQTEALALTKDSQFAQDQPQDLSLKRGRDEETQDYQQPEPKRDYVLNLSKTPERNSSSSSNSCLLSPPVEAQDYLPTEIHMRGLTAGTTGYTTATPTTINPFQSAFVMAAGCNPISALWSSYQPHLAAFPSPASSMASPQSVYSYQQMTPPSSPGSDLETGSEPEDLSVRNDIPLPALFHLFDEAKSSSSGASVSSSSGYSYTPAMSASSASVAANHAKNYRFKCDECQKMYSTSMGLSKHRQFHCPAAECNQEKKTHSCEECGKLYTTIGALKMHIRTHTLPCKCPICGKAFSRPWLLQGHIRTHTGEKPFQCPDCPRSFADRSNLRAHQQTHVDVKKYACQVCHKSFSRMSLLNKHSSSNCTITIA
binding [3]: binds
